Source: the supplement of paper PMC10849652
The list shows a part of the results.

The chains behind the UniProt entries cited, without tags or fusion partners. Where a name states a change or a piece, a line headed by the entry shows the natural chain unless it says otherwise.
UniProt O96013: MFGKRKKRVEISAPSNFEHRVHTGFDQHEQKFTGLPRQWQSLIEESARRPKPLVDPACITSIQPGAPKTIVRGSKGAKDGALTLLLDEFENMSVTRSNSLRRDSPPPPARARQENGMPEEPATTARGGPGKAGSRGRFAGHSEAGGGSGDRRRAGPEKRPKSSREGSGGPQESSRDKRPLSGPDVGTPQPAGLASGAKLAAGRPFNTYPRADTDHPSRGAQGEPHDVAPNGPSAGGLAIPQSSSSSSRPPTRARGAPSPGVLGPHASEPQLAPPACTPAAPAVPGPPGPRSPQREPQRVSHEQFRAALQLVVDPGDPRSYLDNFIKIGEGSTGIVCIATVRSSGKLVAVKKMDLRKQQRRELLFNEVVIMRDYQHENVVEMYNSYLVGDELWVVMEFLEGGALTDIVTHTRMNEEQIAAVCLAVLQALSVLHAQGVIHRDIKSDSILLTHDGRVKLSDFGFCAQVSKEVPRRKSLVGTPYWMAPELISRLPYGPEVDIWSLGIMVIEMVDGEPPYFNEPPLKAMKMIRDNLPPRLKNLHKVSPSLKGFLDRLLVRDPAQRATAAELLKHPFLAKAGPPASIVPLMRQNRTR
UniProt Q5JVF3: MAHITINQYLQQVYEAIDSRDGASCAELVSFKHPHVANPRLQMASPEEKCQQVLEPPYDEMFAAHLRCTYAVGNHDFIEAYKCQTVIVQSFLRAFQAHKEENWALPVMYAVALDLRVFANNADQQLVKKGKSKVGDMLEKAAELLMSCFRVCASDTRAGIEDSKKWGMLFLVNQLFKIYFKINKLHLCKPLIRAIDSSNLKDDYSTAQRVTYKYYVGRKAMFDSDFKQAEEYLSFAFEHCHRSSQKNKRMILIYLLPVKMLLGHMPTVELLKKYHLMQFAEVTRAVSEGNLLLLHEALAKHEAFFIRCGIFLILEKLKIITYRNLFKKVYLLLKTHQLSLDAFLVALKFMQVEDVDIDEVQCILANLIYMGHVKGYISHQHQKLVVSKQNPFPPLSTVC
UniProt Q86SE9: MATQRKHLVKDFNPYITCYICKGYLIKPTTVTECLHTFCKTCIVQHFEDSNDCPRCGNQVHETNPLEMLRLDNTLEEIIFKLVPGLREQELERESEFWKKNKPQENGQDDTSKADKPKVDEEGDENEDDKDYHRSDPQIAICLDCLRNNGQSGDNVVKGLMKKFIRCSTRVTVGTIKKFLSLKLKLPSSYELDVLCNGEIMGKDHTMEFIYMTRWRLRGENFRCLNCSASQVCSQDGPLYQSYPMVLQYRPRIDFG
UniProt O60829: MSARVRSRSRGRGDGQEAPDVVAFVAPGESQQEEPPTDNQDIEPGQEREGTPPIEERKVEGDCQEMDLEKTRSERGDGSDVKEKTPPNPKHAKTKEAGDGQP
UniProt P68402: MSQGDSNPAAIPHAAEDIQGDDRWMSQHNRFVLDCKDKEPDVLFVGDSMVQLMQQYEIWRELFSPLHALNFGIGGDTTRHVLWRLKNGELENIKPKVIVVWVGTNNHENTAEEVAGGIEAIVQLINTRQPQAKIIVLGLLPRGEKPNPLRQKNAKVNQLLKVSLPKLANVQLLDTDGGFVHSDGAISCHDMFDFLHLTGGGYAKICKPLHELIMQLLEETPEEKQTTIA
UniProt Q9NUG6, whole entry, looked up: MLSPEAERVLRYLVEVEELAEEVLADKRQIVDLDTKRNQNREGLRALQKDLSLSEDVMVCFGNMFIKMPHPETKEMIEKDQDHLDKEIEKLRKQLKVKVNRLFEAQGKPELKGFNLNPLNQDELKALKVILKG
UniProt P51160: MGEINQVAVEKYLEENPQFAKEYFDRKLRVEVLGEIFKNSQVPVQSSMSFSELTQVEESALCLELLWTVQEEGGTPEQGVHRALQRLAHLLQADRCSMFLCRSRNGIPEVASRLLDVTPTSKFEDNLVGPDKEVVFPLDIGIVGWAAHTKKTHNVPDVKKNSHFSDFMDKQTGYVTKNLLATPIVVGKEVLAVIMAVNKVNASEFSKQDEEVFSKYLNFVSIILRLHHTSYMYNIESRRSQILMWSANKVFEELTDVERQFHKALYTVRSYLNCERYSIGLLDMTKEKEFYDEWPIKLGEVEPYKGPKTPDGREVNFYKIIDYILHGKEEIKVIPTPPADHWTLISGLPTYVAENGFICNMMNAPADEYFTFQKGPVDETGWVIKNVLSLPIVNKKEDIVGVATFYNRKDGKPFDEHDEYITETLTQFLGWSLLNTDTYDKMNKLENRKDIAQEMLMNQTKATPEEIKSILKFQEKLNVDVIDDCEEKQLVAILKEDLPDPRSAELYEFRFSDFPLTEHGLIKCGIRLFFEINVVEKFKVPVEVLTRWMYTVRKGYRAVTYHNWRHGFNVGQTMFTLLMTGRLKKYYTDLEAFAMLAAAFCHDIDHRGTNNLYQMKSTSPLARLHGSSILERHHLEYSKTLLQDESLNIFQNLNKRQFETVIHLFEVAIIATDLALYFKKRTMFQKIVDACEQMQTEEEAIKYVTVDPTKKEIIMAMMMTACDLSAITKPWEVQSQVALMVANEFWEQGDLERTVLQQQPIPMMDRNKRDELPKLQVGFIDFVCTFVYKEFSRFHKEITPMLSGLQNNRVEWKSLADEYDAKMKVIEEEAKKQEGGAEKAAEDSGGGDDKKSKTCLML
UniProt O14737: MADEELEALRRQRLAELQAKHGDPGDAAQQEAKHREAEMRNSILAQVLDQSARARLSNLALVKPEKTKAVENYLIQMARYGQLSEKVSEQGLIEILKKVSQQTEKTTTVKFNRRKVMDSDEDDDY
UniProt Q16549: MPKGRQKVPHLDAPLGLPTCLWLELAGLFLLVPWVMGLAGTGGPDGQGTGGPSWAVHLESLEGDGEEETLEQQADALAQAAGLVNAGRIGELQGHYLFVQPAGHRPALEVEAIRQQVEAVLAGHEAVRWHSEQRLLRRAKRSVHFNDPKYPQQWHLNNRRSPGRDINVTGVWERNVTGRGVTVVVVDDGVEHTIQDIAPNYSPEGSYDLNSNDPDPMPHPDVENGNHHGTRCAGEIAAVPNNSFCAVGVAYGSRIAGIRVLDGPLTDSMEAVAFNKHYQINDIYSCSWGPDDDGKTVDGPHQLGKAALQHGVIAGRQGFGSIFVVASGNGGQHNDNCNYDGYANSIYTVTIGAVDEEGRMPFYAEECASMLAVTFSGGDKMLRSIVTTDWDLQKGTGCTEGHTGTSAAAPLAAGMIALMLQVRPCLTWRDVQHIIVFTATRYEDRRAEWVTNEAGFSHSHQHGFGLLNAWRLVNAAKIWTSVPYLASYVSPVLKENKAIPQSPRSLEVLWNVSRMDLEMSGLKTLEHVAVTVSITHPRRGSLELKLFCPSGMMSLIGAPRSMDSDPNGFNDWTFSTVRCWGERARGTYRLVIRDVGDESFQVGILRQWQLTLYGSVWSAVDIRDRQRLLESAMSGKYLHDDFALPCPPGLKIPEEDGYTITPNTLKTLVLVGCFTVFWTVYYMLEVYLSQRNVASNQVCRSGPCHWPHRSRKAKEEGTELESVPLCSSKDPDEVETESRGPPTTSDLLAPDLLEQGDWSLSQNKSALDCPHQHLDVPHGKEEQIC
UniProt Q9Y5B6: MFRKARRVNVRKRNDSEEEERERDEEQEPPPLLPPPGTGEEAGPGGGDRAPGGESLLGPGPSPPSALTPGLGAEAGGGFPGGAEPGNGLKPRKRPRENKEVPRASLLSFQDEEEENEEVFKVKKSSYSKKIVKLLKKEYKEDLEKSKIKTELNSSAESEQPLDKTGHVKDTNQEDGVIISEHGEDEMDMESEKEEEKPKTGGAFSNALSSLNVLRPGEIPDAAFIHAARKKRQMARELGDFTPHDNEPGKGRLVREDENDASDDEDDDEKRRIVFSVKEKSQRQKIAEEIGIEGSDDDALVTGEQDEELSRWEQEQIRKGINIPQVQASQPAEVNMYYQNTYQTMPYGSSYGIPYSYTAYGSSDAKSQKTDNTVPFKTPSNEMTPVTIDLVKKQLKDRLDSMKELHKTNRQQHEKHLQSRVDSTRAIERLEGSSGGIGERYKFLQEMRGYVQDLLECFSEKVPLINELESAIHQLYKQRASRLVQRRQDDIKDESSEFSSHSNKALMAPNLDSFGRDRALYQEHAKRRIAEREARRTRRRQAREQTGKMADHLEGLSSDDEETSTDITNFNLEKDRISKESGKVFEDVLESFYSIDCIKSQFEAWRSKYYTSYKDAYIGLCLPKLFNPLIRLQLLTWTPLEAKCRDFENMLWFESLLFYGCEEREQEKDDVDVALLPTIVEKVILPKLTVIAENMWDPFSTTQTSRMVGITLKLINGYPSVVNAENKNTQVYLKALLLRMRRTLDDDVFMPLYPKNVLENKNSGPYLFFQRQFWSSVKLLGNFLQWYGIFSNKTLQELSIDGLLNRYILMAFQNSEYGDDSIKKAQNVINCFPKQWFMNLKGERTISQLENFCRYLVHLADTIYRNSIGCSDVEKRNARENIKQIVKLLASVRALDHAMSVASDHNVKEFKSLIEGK
UniProt Q15154: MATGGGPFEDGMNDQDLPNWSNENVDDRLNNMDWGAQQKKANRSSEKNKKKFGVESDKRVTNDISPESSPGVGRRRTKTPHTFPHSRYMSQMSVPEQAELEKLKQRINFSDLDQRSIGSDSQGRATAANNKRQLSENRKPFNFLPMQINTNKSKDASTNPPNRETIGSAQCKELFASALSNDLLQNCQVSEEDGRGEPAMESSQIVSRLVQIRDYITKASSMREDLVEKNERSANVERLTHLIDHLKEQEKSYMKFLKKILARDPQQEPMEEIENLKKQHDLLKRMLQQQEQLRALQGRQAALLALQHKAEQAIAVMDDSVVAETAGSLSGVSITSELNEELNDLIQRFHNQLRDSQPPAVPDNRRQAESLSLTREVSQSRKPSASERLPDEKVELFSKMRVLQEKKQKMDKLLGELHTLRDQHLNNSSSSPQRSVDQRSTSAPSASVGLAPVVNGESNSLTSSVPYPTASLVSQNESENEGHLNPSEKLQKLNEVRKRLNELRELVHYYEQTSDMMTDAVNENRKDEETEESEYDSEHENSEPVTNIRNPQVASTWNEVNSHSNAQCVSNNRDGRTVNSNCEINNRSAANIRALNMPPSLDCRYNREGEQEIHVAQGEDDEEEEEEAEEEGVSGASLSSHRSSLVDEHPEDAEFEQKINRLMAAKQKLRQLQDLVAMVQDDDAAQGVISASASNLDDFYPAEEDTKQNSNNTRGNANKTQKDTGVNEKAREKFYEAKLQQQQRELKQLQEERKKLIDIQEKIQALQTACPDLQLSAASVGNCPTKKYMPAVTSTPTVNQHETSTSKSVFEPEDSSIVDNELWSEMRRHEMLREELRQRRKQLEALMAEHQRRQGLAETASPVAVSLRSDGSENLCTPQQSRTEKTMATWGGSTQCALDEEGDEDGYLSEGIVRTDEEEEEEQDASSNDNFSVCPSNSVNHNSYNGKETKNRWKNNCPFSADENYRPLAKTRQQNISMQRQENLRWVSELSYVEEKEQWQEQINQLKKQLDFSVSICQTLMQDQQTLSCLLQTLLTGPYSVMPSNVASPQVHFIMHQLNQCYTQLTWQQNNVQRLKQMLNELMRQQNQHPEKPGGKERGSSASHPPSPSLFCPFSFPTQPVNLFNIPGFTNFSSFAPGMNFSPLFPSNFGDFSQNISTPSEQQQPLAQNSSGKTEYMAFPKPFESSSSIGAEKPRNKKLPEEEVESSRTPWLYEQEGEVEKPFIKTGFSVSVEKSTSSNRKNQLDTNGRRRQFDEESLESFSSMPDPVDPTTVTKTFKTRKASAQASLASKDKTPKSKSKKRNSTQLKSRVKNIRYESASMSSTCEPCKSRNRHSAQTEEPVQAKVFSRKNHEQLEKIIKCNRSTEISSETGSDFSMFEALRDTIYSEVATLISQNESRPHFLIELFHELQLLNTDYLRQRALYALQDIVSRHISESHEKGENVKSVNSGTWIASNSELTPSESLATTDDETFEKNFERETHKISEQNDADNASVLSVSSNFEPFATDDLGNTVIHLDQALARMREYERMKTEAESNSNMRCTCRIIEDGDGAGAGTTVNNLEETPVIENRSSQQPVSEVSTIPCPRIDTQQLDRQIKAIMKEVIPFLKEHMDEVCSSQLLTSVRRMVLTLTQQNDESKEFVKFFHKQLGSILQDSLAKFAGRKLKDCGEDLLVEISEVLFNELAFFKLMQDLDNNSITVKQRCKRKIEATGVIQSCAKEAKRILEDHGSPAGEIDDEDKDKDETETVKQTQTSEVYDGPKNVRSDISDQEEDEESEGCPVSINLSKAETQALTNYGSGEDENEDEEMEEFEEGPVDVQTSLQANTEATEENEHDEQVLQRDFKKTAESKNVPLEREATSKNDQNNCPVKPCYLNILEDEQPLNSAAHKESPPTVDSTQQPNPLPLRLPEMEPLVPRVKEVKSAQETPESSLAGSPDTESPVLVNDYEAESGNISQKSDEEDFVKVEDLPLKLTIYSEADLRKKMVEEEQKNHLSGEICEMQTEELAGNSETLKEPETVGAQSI
UniProt O43924: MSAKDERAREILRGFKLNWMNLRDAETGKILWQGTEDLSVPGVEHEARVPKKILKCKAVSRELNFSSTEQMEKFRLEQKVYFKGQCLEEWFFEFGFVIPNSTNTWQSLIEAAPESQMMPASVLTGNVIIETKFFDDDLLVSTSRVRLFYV

Experiments:
Test in all cases: log2 fold change, soluble protein after heating vs DMSO (PISA); higher = thermal stabilisation; K562 cells, 10 uM, 30 min; active = over 0.2 and 3.5 SD of the protein, either way, in both replicates (recomputed)
[1] = compound: CC1=C(C=C(C=C1)NC(=O)C2=CC(=CC=C2)C(C)(C)C#N)NC3=CC4=C(C=C3)N=CN(C4=O)C
Method in brief: (§1)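 K562 cells at 2×10^6 cells/mL were exposed to 10 μM compound for 30 min, then aliquots were heated for 3 min across 48°C-58°C, pooled, and extracted in PBS containing 0.5% NP-40 at 4°C. The supernatant after 21,000xg for 90 min was taken as soluble protein and measured by TMTpro 16plex LC-MS/MS with channel sums equalised. Thermal stability is reported relative to control samples, with values from duplicates. Fold changes are given on a log2 scale.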

[2] = compound: CC1=C(C=C(C=C1)NC(=O)C2=CC(=CC=C2)N(C)C)NC(=O)C3=CC=C(C=C3)O
Method in brief: as §1

[3] = compound: CC1=CC=C(C=C1)SC2=C3C=C(SC3=CN=C2)C(=O)N
Method in brief: as §1

[4] = compound: CC1=NC(=CC=C1)C2=C(N=C(N2)C(C)(C)C)C3=CC4=NC=CN=C4C=C3
Method in brief: as §1

Nexturastat A = compound: CCCCN(Cc1ccc(C(=O)NO)cc1)C(=O)Nc1ccccc1 [Nexturastat A]
Method in brief: as §1

vemurafenib = compound: CCCS(=O)(=O)Nc1ccc(F)c(C(=O)c2c[nH]c3ncc(-c4ccc(Cl)cc4)cc23)c1F [vemurafenib]
Method in brief: as §1

[5] = compound: CCCS(=O)(=O)Nc1ccc(F)c(C(=O)c2c[nH]c3ncc(Cl)cc23)c1F
Method in brief: as §1

[6] = compound: CCCc1cc(C)[nH]c(=O)c1CNC(=O)c1cc(-c2ccnc(N3CCN(C)CC3)c2)cc2c1cnn2C(C)C
Method in brief: as §1

givinostat = compound: CCN(CC)Cc1ccc2cc(COC(=O)Nc3ccc(C(=O)NO)cc3)ccc2c1 [givinostat]
Method in brief: as §1

barasertib = compound: CCN(CCCOc1ccc2c(Nc3cc(CC(=O)Nc4cccc(F)c4)[nH]n3)ncnc2c1)CCOP(=O)(O)O [barasertib]
Method in brief: as §1

Row | Target | log2 fold change [1] | log2 fold change [2] | log2 fold change [3] | log2 fold change [4] | log2 fold change (Nexturastat A) | log2 fold change (vemurafenib) | log2 fold change [5] | log2 fold change [6] | log2 fold change (givinostat) | log2 fold change (barasertib)
1 | PAK4 (UniProt O96013) | inactive: -0.154 | inactive: 0.06 | inactive: -0.017 | inactive: -0.017 | inactive: -0.027 | inactive: -0.035 | inactive: -0.026 | inactive: -0.141 | inactive: -0.01 | inactive: 0.027
2 | PCID2 (UniProt Q5JVF3) | inactive: 0.024 | inactive: -0.026 | inactive: -0.066 | inactive: 0.033 | inactive: 0.153 | inactive: 0.069 | inactive: 0.202 | inactive: 0.071 | inactive: 0.114 | inactive: -0.016
3 | PAFAH2 (UniProt Q99487) | inactive: -0.09 | inactive: 0.006 | inactive: 0.019 | inactive: -0.038 |  | inactive: 0.093 | inactive: -0.015 |  | inactive: 0.059 | inactive: -0.044
4 | PBK (UniProt Q96KB5) | inactive: 0.01 | inactive: -0.056 | inactive: 0.069 | inactive: -0.001 | inactive: 0.037 | inactive: 0.124 | inactive: 0.14 | inactive: 0.144 | inactive: 0.143 | inactive: 0.145
5 | PCGF5 (UniProt Q86SE9) | inactive: -0.103 | inactive: -0.102 |  | inactive: -0.21 | inactive: -0.129 |  |  |  |  | inactive: 0.063
6 | PEX14 (UniProt O75381) | inactive: 0.056 | inactive: -0.032 | inactive: 0.009 | inactive: 0.07 | inactive: -0.052 | inactive: 0.033 | inactive: 0.006 | inactive: 0.013 | inactive: 0.029 | inactive: -0.009
7 | PAGE4 (UniProt O60829) | inactive: 0.165 | inactive: 0.108 |  |  | inactive: -0.066 | inactive: -0.022 |  | inactive: -0.328 | inactive: -0.047 | inactive: 0.177
8 | PAIP1 (UniProt Q9H074) | inactive: -0.019 | inactive: 0.022 | inactive: -0.011 | inactive: 0.013 | inactive: -0.065 | inactive: 0.004 | inactive: 0.032 | inactive: -0.016 | inactive: -0.056 | inactive: -0.002
9 | PCBP1 (UniProt Q15365) | inactive: 0.034 | inactive: -0.037 | inactive: 0.112 | inactive: 0.067 | inactive: -0.038 | inactive: 0.022 | inactive: 0.097 | inactive: -0.011 | inactive: 0.013 | inactive: 0.021
10 | PDHX (UniProt O00330) | inactive: 0.023 | inactive: -0.008 | inactive: -0.001 | inactive: -0.075 | inactive: 0.074 | inactive: -0.068 | inactive: -0.062 | inactive: 0.053 | inactive: 0.072 | inactive: -0.057
11 | PAFAH1B2 (UniProt P68402) | inactive: 0.064 | inactive: 0.005 | inactive: -0.106 | inactive: -0.046 | inactive: -0.157 | inactive: 0.083 | inactive: -0.135 | inactive: -0.355 | inactive: 0.042 | inactive: 0.046
12 | PDRG1 (UniProt Q9NUG6) | inactive: 0.039 | inactive: -0.064 | inactive: 0 | inactive: 0.012 | inactive: 0.014 | inactive: 0.032 | inactive: -0.008 | inactive: -0.054 | inactive: 0.008 | inactive: 0.009
13 | PDPK1 (UniProt O15530) | inactive: -0.026 | inactive: -0.055 | inactive: 0.019 | inactive: -0.007 | inactive: -0.12 | inactive: 0.03 | inactive: 0.003 | inactive: -0.018 | inactive: 0.032 | inactive: 0.035
14 | PDE6C (UniProt P51160) | inactive: -0.001 | inactive: 0.058 | inactive: 0.008 | inactive: 0.171 |  | inactive: 0.007 | inactive: 0.052 | inactive: -0.201 |  | inactive: -0.028
15 | PDCD5 (UniProt O14737) | inactive: 0.207 | inactive: -0.021 | inactive: -0.006 | inactive: 0.061 | inactive: -0.107 | inactive: -0.009 | inactive: -0.046 | inactive: -0.068 | inactive: -0.004 | inactive: -0.012
16 | PCIF1 (UniProt Q9H4Z3) | inactive: -0.177 | inactive: -0.257 |  | inactive: 0.126 | inactive: -0.413 | inactive: 0.1 |  | inactive: 0.123 | inactive: -0.061 | inactive: 0.001
17 | PAN2 (UniProt Q504Q3) |  |  |  |  |  | inactive: -0.128 |  |  |  | inactive: 0.088
18 | PACC1 (UniProt Q9H813) | inactive: -0.145 |  | inactive: 0.026 | inactive: -0.016 | inactive: 0.002 | inactive: 0.049 | inactive: -0.018 | inactive: -0.055 |  | inactive: 0.046
19 | PACSIN3 (UniProt Q9UKS6) |  | inactive: -0.005 |  | inactive: -0.371 | inactive: 0.207 |  |  |  | inactive: -0.055 | 

Looked up above:
log2 fold change (barasertib) with PACC1 (UniProt Q9H813) is entered as inactive: 0.046
log2 fold change (barasertib) with PDHX (UniProt O00330) is entered as inactive: -0.057

The results go on:

Row | Target | log2 fold change [1] | log2 fold change [2] | log2 fold change [3] | log2 fold change [4] | log2 fold change (Nexturastat A) | log2 fold change (vemurafenib) | log2 fold change [5] | log2 fold change [6] | log2 fold change (givinostat) | log2 fold change (barasertib)
20 | PABPN1 (UniProt Q86U42) |  |  |  |  |  |  |  | inactive: 0.077 |  | inactive: -0.101
21 | PAICS (UniProt D6RF62) |  | inactive: 0.14 | inactive: -0.179 |  |  |  | inactive: -0.399 |  |  | 
22 | PCSK7 (UniProt Q16549) |  |  | inactive: 0.202 |  |  |  | inactive: 0.187 |  | inactive: -0.052 | 
23 | PAXBP1 (UniProt Q9Y5B6) |  | inactive: 0.117 |  | inactive: -0.076 |  |  |  |  | inactive: 0.117 | inactive: -0.058
24 | PCM1 isoform 2 (UniProt Q15154) | inactive: -0.354 |  |  |  |  |  |  | inactive: -0.3 |  | 
25 | PDE4A (UniProt P27815) |  | inactive: -0.028 | inactive: -0.047 | inactive: 0.062 | inactive: 0.061 | inactive: 0.006 | inactive: 0.024 |  | inactive: 0.015 | inactive: 0.049
26 | PCMTD1 (UniProt Q96MG8) |  | inactive: 0.002 |  | inactive: -0.098 | inactive: -0.113 |  |  |  |  | inactive: -0.228
27 | PCMTD2 (UniProt Q9NV79) |  | inactive: 0.11 |  |  |  |  |  | inactive: 0.197 |  | 
28 | PAFAH1B1 (UniProt I3L3N5) |  |  | inactive: -0.118 | inactive: -0.122 |  | inactive: -0.177 | inactive: -0.22 | inactive: -0.233 |  | inactive: 0.062
29 | PCNX1 (UniProt Q96RV3) |  |  | inactive: -0.373 |  | inactive: 0.106 | inactive: 0.025 | active: -0.58 | inactive: -0.035 |  | inactive: 0.026
30 | PDE6D (UniProt O43924) | inactive: -0.081 |  |  | inactive: -0.117 | inactive: 0.15 | inactive: -0.022 |  | inactive: -0.028 | inactive: -0.052 | inactive: 0.002
31 | PDE3B (UniProt Q13370) |  |  |  | inactive: 0.091 | inactive: 0.413 |  |  | inactive: -0.114 |  | 
32 | PDXP (UniProt B1AHD3) |  |  |  |  | inactive: -0.268 | inactive: -0.1 |  |  |  | 
33 | PDCD2 (UniProt Q16342) | inactive: -0.083 |  |  | inactive: -0.097 | inactive: 0.188 |  |  | inactive: 0.086 |  | inactive: 0.022
34 | PARD3 (UniProt Q8TEW0) |  |  | inactive: 0.095 |  |  |  | inactive: -0.134 |  |  | 
35 | PAF1 (UniProt Q8N7H5) |  | inactive: 0 |  |  | inactive: 0.081 |  |  | inactive: 0.204 |  | 
36 | PCSK6 isoform 7 (UniProt P29122) | inactive: -0.314 |  | inactive: -0.114 |  |  | inactive: -0.088 | inactive: -0.1 | inactive: -0.25 |  | inactive: 0.066
37 | PDP1 isoform 2 (UniProt Q9P0J1) | inactive: -0.144 |  | inactive: 0.047 | inactive: 0.183 |  |  | inactive: -0.02 |  |  | inactive: 0.248
